Results are given in words; binding and its absence hold for the method and conditions named. Binding seen in cells or lysates may run through a third protein. These calls come from enrichment with a bait or labelling near it, and not all partners need be listed. For some assays here: A no says only that the protein was not detected with the bait.
Key:
[1] = target: Hsp78-6xHis (wild-type Hsp78 with a C-terminal 6x polyhistidine-tag) (S. cerevisiae) (UniProt P33416); test: affinity purification with mass spectrometry
[2] = target: Hsp78TR-6xHis (Hsp78 E216Q/E614Q Walker B mutant with a C-terminal 6x polyhistidine-tag) (S. cerevisiae) (UniProt P33416); test: affinity purification with mass spectrometry

The chains behind the UniProt entries cited, without tags or fusion partners. Where a name states a change or a piece, a line headed by the entry shows the natural chain unless it says otherwise. Residues count along the entry.
UniProt P33416, residues 45-811: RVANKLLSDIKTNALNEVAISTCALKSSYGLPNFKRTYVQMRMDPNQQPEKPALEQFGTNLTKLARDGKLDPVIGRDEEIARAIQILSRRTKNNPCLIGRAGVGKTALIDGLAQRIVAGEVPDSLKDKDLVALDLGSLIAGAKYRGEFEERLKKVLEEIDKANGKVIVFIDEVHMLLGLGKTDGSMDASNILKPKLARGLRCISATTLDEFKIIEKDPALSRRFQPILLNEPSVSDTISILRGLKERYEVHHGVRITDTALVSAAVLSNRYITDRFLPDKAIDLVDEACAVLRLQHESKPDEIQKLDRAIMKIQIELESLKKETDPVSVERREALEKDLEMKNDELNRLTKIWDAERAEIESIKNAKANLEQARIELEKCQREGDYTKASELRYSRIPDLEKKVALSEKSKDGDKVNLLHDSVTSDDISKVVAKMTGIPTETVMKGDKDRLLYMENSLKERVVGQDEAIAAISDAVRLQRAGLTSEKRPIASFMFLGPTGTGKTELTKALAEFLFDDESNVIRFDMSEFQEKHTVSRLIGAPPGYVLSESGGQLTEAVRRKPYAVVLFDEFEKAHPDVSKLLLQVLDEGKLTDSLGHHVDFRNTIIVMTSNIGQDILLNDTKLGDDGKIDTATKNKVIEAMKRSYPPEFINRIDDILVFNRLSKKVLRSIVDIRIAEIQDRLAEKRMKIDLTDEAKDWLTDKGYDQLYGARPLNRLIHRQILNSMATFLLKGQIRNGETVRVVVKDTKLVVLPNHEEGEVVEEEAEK

Binder | binding [1] | binding [2]
Sdh2 (protein, UniProt P21801 21-266) TATTAAATHTPRLKTFKVYRWNPDEPSAKPHLQSYQVDLNDCGPMVLDALLKIKDEQDSTLTFRRSCREGICGSCAMNIGGRNTLACICKIDQNESKQLKIYPLPHMFIVKDLVPDLTNFYQQYKSIQPYLQRSSFPKDGTEVLQSIEDRKKLDGLYECILCACCSTSCPSYWWNQEQYLGPAVLMQAYRWLIDSRDQATKTRKAMLNNSMSLYRCHTIMNCTRTCPKGLNPGLAIAEIKKSLAFA | binds | binds
Pil1 (protein, UniProt P53252 1-339) MHRTYSLRNSRAPTASQLQNPPPPPSTTKGRFFGKGGLAYSFRRSAAGAFGPELSRKLSQLVKIEKNVLRSMELTANERRDAAKQLSIWGLENDDDVSDITDKLGVLIYEVSELDDQFIDRYDQYRLTLKSIRDIEGSVQPSRDRKDKITDKIAYLKYKDPQSPKIEVLEQELVRAEAESLVAEAQLSNITRSKLRAAFNYQFDSIIEHSEKIALIAGYGKALLELLDDSPVTPGETRPAYDGYEASKQIIIDAESALNEWTLDSAQVKPTLSFKQDYEDFEPEEGEEEEEEDGQGRWSEDEQEDGQIEEPEQEEEGAVEEHEQVGHQQSESLPQQTTA | no binding | 
Mcr1 (NADH-cytochrome b5 reductase) (protein, UniProt P36060 1-302) MFSRLSRSHSKALPIALGTVAIAAATAFYFANRNQHSFVFNESNKVFKGDDKWIDLPISKIEEESHDTRRFTFKLPTEDSEMGLVLASALFAKFVTPKGSNVVRPYTPVSDLSQKGHFQLVVKHYEGGKMTSHLFGLKPNDTVSFKGPIMKWKWQPNQFKSITLLGAGTGINPLYQLAHHIVENPNDKTKVNLLYGNKTPQDILLRKELDALKEKYPDKFNVTYFVDDKQDDQDFDGEISFISKDFIQEHVPGPKESTHLFVCGPPPFMNAYSGEKKSPKDQGELIGILNNLGYSKDQVFKF | binds | binds
Fum1 (protein, UniProt P08417 25-488) NSSFRTETDAFGEIHVPADKYWGAQTQRSFQNFKIGGARERMPLPLVHAFGVLKKSAAIVNESLGGLDPKISKAIQQAADEVASGKLDDHFPLVVFQTGSGTQSNMNANEVISNRAIEILGGKIGSKQVHPNNHCNQSQSSNDTFPTVMHIAASLQIQNELIPELTNLKNALEAKSKEFDHIVKIGRTHLQDATPLTLGQEFSGYVQQVENGIQRVAHSLKTLSFLAQGGTAVGTGLNTKPGFDVKIAEQISKETGLKFQTAPNKFEALAAHDAIVECSGALNTLACSLFKIAQDIRYLGSGPRCGYHELMLPENEPGSSIMPGKVNPTQNEALTQVCVQVMGNNAAITFAGSQGQFELNVFKPVMIANLLNSIRLITDAAYSFRVHCVEGIKANEPRIHELLTKSLMLVTALNPKIGYDAASKVAKNAHKKGITLKESALELGVLTEKEFDEWVVPEHMLGPK | binds | 
Lsp1 (protein, UniProt Q12230 1-341) MHRTYSLRNQRAPTAAELQAPPPPPSSTKSKFFGKASIASSFRKNAAGNFGPELARKLSQLVKTEKGVLRAMEVVASERREAAKQLSLWGADNDDDVSDVTDKLGVLIYELGELQDQFIDKYDQYRVTLKSIRNIEASVQPSRDRKEKITDEIAHLKYKDPQSTKIPVLEQELVRAEAESLVAEAQLSNITREKLKAAYSYMFDSLRELSEKFALIAGYGKALLELLDDSPVTPGEARPAYDGYEASRQIIMDAESALESWTLDMAAVKPTLSFHQTVDDVYEDEDGEEEEEPEIQNGDIPGQVVEEEEVEWTTEVPVDDEAHEADHHVSQNGHTSGSENI | no binding | 
Ilv2 (protein, UniProt P07342 91-687) GLTGGQIFNEMMSRQNVDTVFGYPGGAILPVYDAIHNSDKFNFVLPKHEQGAGHMAEGYARASGKPGVVLVTSGPGATNVVTPMADAFADGIPMVVFTGQVPTSAIGTDAFQEADVVGISRSCTKWNVMVKSVEELPLRINEAFEIATSGRPGPVLVDLPKDVTAAILRNPIPTKTTLPSNALNQLTSRAQDEFVMQSINKAADLINLAKKPVLYVGAGILNHADGPRLLKELSDRAQIPVTTTLQGLGSFDQEDPKSLDMLGMHGCATANLAVQNADLIIAVGARFDDRVTGNISKFAPEARRAAAEGRGGIIHFEVSPKNINKVVQTQIAVEGDATTNLGKMMSKIFPVKERSEWFAQINKWKKEYPYAYMEETPGSKIKPQTVIKKLSKVANDTGRHVIVTTGVGQHQMWAAQHWTWRNPHTFITSGGLGTMGYGLPAAIGAQVAKPESLVIDIDGDASFNMTLTELSSAVQAGTPVKILILNNEEQGMVTQWQSLFYEHRYSHTHQLNPDFIKLAEAMGLKGLRVKKQEELDAKLKEFVSTKGPVLLEVEVDKKVPVLPMVAGGSGLDEFINFDPEVERQQTELRHKRTGGKH | binds | 
Aco1 (aconitase) (protein, UniProt P19414 17-778) ATVSNLTRDSKVNQNLLEDHSFINYKQNVETLDIVRKRLNRPFTYAEKILYGHLDDPHGQDIQRGVSYLKLRPDRVACQDATAQMAILQFMSAGLPQVAKPVTVHCDHLIQAQVGGEKDLKRAIDLNKEVYDFLASATAKYNMGFWKPGSGIIHQIVLENYAFPGALIIGTDSHTPNAGGLGQLAIGVGGADAVDVMAGRPWELKAPKILGVKLTGKMNGWTSPKDIILKLAGITTVKGGTGKIVEYFGDGVDTFSATGMGTICNMGAEIGATTSVFPFNKSMIEYLEATGRGKIADFAKLYHKDLLSADKDAEYDEVVEIDLNTLEPYINGPFTPDLATPVSKMKEVAVANNWPLDVRVGLIGSCTNSSYEDMSRSASIVKDAAAHGLKSKTIFTVTPGSEQIRATIERDGQLETFKEFGGIVLANACGPCIGQWDRRDIKKGDKNTIVSSYNRNFTSRNDGNPQTHAFVASPELVTAFAIAGDLRFNPLTDKLKDKDGNEFMLKPPHGDGLPQRGYDAGENTYQAPPADRSTVEVKVSPTSDRLQLLKPFKPWDGKDAKDMPILIKAVGKTTTDHISMAGPWLKYRGHLENISNNYMIGAINAENKKANCVKNVYTGEYKGVPDTARDYRDQGIKWVVIGDENFGEGSSREHAALEPRFLGGFAIITKSFARIHETNLKKQGLLPLNFKNPADYDKINPDDRIDILGLAELAPGKPVTMRVHPKNGKPWDAVLTHTFNDEQIEWFKYGSALNKIKADEKK | binds | 

Results, then the binder that gave them:

binding [1] | binding [2] | Binder
binds | binds | Prx1 (protein, UniProt P34227 14-261) AWTLPKQAHLQSQTIKTFATAPILCKQFKQSDQPRLRINSDAPNFDADTTVGKINFYDYLGDSWGVLFSHPADFTPVCTTEVSAFAKLKPEFDKRNVKLIGLSVEDVESHEKWIQDIKEIAKVKNVGFPIIGDTFRNVAFLYDMVDAEGFKNINDGSLKTVRSVFVIDPKKKIRLIFTYPSTVGRNTSEVLRVIDALQLTDKEGVVTPINWQPADDVIIPPSVSNDEAKAKFGQFNEIKPYLRFTKSK
binds | binds | Ald4 (aldehyde dehydrogenase) (protein, UniProt P46367 25-519) SHLPMTVPIKLPNGLEYEQPTGLFINNKFVPSKQNKTFEVINPSTEEEICHIYEGREDDVEEAVQAADRAFSNGSWNGIDPIDRGKALYRLAELIEQDKDVIASIETLDNGKAISSSRGDVDLVINYLKSSAGFADKIDGRMIDTGRTHFSYTKRQPLGVCGQIIPWNFPLLMWAWKIAPALVTGNTVVLKTAESTPLSALYVSKYIPQAGIPPGVINIVSGFGKIVGEAITNHPKIKKVAFTGSTATGRHIYQSAAAGLKKVTLELGGKSPNIVFADAELKKAVQNIILGIYYNSGEVCCAGSRVYVEESIYDKFIEEFKAASESIKVGDPFDESTFQGAQTSQMQLNKILKYVDIGKNEGATLITGGERLGSKGYFIKPTVFGDVKEDMRIVKEEIFGPVVTVTKFKSADEVINMANDSEYGLAAGIHTSNINTALKVADRVNAGTVWINTYNDFHHAVPFGGFNASGLGREMSVDALQNYLQVKAVRAKLDE
 | binds | Ilv5 (protein, UniProt P06168 48-395) LKQINFGGTVETVYERADWPREKLLDYFKNDTFALIGYGSQGYGQGLNLRDNGLNVIIGVRKDGASWKAAIEDGWVPGKNLFTVEDAIKRGSYVMNLLSDAAQSETWPAIKPLLTKGKTLYFSHGFSPVFKDLTHVEPPKDLDVILVAPKGSGRTVRSLFKEGRGINSSYAVWNDVTGKAHEKAQALAVAIGSGYVYQTTFEREVNSDLYGERGCLMGGIHGMFLAQYDVLRENGHSPSEAFNETVEEATQSLYPLIGKYGMDYMYDACSTTARRGALDWYPIFKNALKPVFQDLYESTKNGTETKRSLEFNSQPDYREKLEKELDTIRNMEIWKVGKEVRKLRPENQ
binds | binds | Alt1 (protein, UniProt P52893 65-592) SSSWIVAQNHRRSLSGQSSLNDLRHLNRFPHHTLKTSNNEFYPAEQLTLEDVNENVLKAKYAVRGAIPMRAEELKAQLEKDPQSLPFDRIINANIGNPQQLQQKPLTYYRQVLSLLQYPELLNQNEQQLVDSKLFKLDAIKRAKSLMEDIGGSVGAYSSSQGVEGIRKSVAEFITKRDEGEISYPEDIFLTAGASAAVNYLLSIFCRGPETGVLIPIPQYPLYTATLALNNSQALPYYLDENSGWSTNPEEIETVVKEAIQNEIKPTVLVVINPGNPTGAVLSPESIAQIFEVAAKYGTVVIADEVYQENIFPGTKFHSMKKILRHLQREHPGKFDNVQLASLHSTSKGVSGECGQRGGYMELTGFSHEMRQVILKLASISLCPVVTGQALVDLMVRPPVEGEESFESDQAERNSIHEKLITRAMTLYETFNSLEGIECQKPQGAMYLFPKIDLPFKAVQEARHLELTPDEFYCKKLLESTGICTVPGSGFGQEPGTYHLRTTFLAPGLEWIKKWESFHKEFFDQYRD
 | binds | Lsc2 (subunit of the succinate-CoA ligase) (protein, UniProt P53312 31-427) LSIHEYRSAQLLREYGIGTPEGFPAFTPEEAFEAAKKLNTNKLVIKAQALTGGRGKGHFDTGYKSGVHMIESPQQAEDVAKEMLNHNLITKQTGIAGKPVSAVYIVKRVDTKHEAYLSILMDRQTKKPMIIASSQGGMNIEEVAERTPDAIKKFSIETSKGLSPQMAKDVAKSLGFSPDAQDEAAKAVSNLYKIFMERDATQVEINPLSEIEHDPTHKIMCTDAKFGFDDNASFRQEKIYSWRDLSQEDPDEVKAKKYDLNFVKLKGNIGCLVNGAGLAMATMDVIKLNGGDPANFLDCGGGATPETIKQGFELILSNKNVDAIFVNIFGGIVRCDYVALGLVEAARELEVRVPIVARLQGTKVEEGRDIINKSGVKIYSFDELDPAAKKVVELTQN

Source: paper doi:10.1101/2022.01.28.478199
